Inconclusive means that the source gave no clear call. Such entries were picked first, then a sample of the others. Where the call is inconclusive, the potency comes from a doubtful curve fit. Active and inactive are the calls of the source. Calls come from the whole dose curve; as a rule, active = well fitted inhibition curve with a large enough effect; inconclusive = small, poorly fitted or top-dose-only effect; inactive = no such curve, though single readings can be large or run the other way.
Assay: qHTS Assay for Lipid Storage Modulators: Differentiation Assay against Probe and Analogs
Settings: 3T3-L1 adipocyte differentiation, BODIPY lipid imaging, 8 d; series mostly up to 20 µM
Description: Storing lipids as a reservoir for energy or the anabolism of elementary metabolites is a common feature of probably all cells and is conserved from bacteria to humans. The universal cellular lipid storage organelle is the so-called lipid storage droplet (LD). Although ubiquitous, LDs share a simple structure composed of a hydrophobic core that harbors the storage lipids, which is shielded by a droplet-specific phospholipid monolayer to which proteins are attached. The current model of LD biogenesis involves an incorporation of the lipid core into the membrane leaflets of the endoplasmic reticulum (ER) followed by a subsequent budding-like maturation of a LD, which ultimately pinches off. Once released, LD volume can increase by localized lipogenesis or fusion of existing droplets. Storage lipids are re-mobilized enzymatically by lipase activity. Lipase regulation in the adipocyte is heavily studied and involves multiple components including catecholamine signaling, the LD-associated proteins Perilipin and comparative gene identification-58 (CGI-58) and at least two lipases named hormone sensitive lipase (HSL) and adipocyte triglyceride lipase (ATGL). LD regulation outside of the adipocyte is poorly understood and only few components are known. However, there is an urgent need to learn more about ectopic fat depots as mislocalized storage of lipids, for example in the liver or muscle, is an eminent health problem associated with insulin resistance or the metabolic syndrome. We developed a laser-scanning cytometer assay to enable 1,536-well screening and combined the results of the small molecules screen with an RNAi database based on lipid storage. […] NIH Chemical Genomics Center [NCGC] MLPCN Grant: MH085686 Assay Submitter (PI): Mathias Beller, Max-Planck-Institut fur Biophysikalische Chemie
3T3L1 cells were obtained from ATCC (CL-173). Pre-adipocyte medium (PM-1), differentiation medium (DM-2) and after adipocyte medium (AM-1) were purchased from Zen-Bio (# PM-1-L1, DM-2-L1, AM-1-L1). 200 uL of PM-1containing 3,000 cells was dispensed into each well of a 96-well plate (Corning, #3340), and the assay plates were incubated at 37 °C, 95% humidity and 5% CO2 for 3-5 days. The differentiation of pre-adipocyte to adipocyte was induced by removing the pre-adipocyte medium and replacing with 200 uL of differentiation medium. 1 uL of compounds at different concentrations dissolved in differentiation medium were added to the assay plates, along with medium exchange for differentiation to test their effects on adipocyte differentiation. The final DMSO concentration was 0.5%.Triacsin C (Sigma-Aldrich T-4540), an inhibitor of long-chain fatty acyl CoA synthetase that blocks synthesis of triglycerides, was used as a positive control for lipid under-storage. After 3 days, differentiation medium was replaced with adipocyte maintenance medium and assay plates were incubated for 5 days. Aspirated the medium, then Cells were fixed using 4% of paraformaldehyde in PBS for 30 minutes at room temperature, washed 3 times with PBS buffer. Finally, the cells were stained using 200 uL of PBS containing BODIPY lipid dye 493/530 (1:2000 dilution, Molecular Probes), Hoechst 33342 (1:1000 dilution, Life Technologies, #H3570) and CellMask deep red dye (1:10,000 dilution, Life Technologies, #H32721) with Washer dispenser EL406(Biotek). Images were acquired using InCell 2000 (GE), number of cells, number of lipids, size of lipids and cells were analysis using GE Investigator software.

Compound | Potency
CCOc1ccc(CCNC(=O)c2cc3sccc3n2Cc2ccncc2)cc1OCC | inconclusive: 8910 nM [inhibitor, partial curve]
CCOC(=O)C1CCN(C(=O)C(C)(C)NC(=O)Nc2ccc(Cl)cc2Cl)CC1 | inconclusive: 7940 nM [inhibitor, full curve, poor fit]
CCOc1cc(F)c(CCNC(=O)c2cc3sccc3n2Cc2ccccc2)cc1OCC | inactive
CCOc1ccc(CCNC(=O)c2cc3sccc3n2CCN2CCN(C)CC2)cc1OCC | inconclusive: 794 nM [inhibitor, full curve, poor fit]
CCOC(=O)C1CCN(C(=O)C(C)(C)NC(=O)Nc2ccc(-c3ccccc3)cc2)CC1 | active: 1120 nM
CCOc1ccc(CCNC(=O)c2ccc(C3(C(F)(F)F)N=N3)cc2)cc1OCC | inconclusive: 794 nM [inhibitor, full curve, poor fit]
CCOc1cc(CCNC(=O)c2cc3sccc3n2Cc2ccccc2)cc(F)c1OCC | active: 2820 nM
CCOC(=O)C1CCN(C(=O)C2(NC(=O)Nc3ccccc3Cl)CCC2)CC1 | active: 2820 nM
CCOc1ccc(CCNC(=O)c2cccc(C(=O)c3ccccc3)c2)cc1OCC | inconclusive: 3980 nM [inhibitor, full curve, poor fit]
CCOc1ccc(CCNC(=O)c2ccnn2Cc2cccc(C)c2)cc1OCC | active: 2820 nM
CCOc1ccc(CCNC(=O)c2cc3sccc3n2CCN2CCOCC2)cc1OCC | inactive
CC(C)Oc1ccc(CCNC(=O)c2cc3sccc3n2Cc2ccccc2)cc1OC(C)C | active: 3980 nM
O=C(NC1CCCc2c1cnn2-c1cccc(O)c1)c1ccccn1 (centres undefined) | active: 3160 nM
CCn1c(C(=O)NCCc2ccc(OC)cc2)cc2sccc21 | active: 12600 nM
CCOc1ccc(CCNC(=O)c2cc3sccc3n2Cc2ccccc2)cc1OCC | inconclusive: 2510 nM [inhibitor, full curve]
CCOc1ccc(CCNC(=O)c2cc3sccc3n2Cc2ccccn2)cc1OCC | inconclusive: 1260 nM [inhibitor, partial curve, poor fit]
CCOc1ccc(CCNC(=O)c2cc3ccccc3o2)cc1OCC | inconclusive: 3550 nM [inhibitor, partial curve, poor fit]
CCOc1ccc(CCNC(=O)c2cc3sccc3n2C)cc1OCC | inconclusive: 1580 nM [inhibitor, full curve, poor fit]
CCOc1ccc(CCNC(=O)c2ccc3ccccc3n2)cc1OCC | inactive

Quoted from the listing (two entries):
Compound | Potency
CCOc1ccc(CCNC(=O)c2cc3sccc3n2C)cc1OCC | inconclusive: 1580 nM [inhibitor, full curve, poor fit]
CCOc1ccc(CCNC(=O)c2ccc3ccccc3n2)cc1OCC | inactive

Reference: PubChem BioAssay AID652183 (National Center for Advancing Translational Sciences (NCATS), 2013)
